Reference: the supplement of paper PMC5770031
Where a name gives a salt, the structure may show the parent alone. This is one part of the list. Single values are uncertain here, since repeats match poorly.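 ATM8/balancer (normal ATM) heterozygous flies were crossed on treated food; parents laid eggs 5–6 days, offspring developed ~12 days, so parents and larvae ingested compound. Readout: fraction of emerged adults homozygous for ATM8 versus 2% DMSO controls. Compounds were neutral at 10–20% homozygotes, harmful below 10%, helpful above 20%.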

Test system: Drosophila melanogaster ATM8 (temperature-sensitive ATM allele)
Assay: fraction of eclosed F1 progeny that are homozygous ATM8 (rescue of developmental lethality); higher = more rescue of ATM8 developmental lethality; extreme values may be limits of the assay
Conditions: compound concentration applied to food 0.2 mM; 21 °C

Structure (SMILES) | fraction of eclosed F1 progeny that are homozygous ATM8
NCCCNCCCCNCCCN | 0.154
CC1=NN(c2ccccc2)C(=O)C1 | 0.0571
Cn1cnc2c1c(=O)[nH]c(=O)n2C | 0.191
CCC[C@@H]1C[C@@H](C(=O)N[C@@H]([C@H]2O[C@H](SC)[C@H](O)[C@@H](O)[C@H]2O)[C@H](C)Cl)N(C)C1 | 0.069
O=C(O)CCNC(=O)c1ccccc1 | 0.167
COc1ccc(-c2coc3cc(OC)ccc3c2=O)cc1 | 0.0761
CC1(C)C(=O)C=C[C@]2(C)[C@H]3CC[C@@]4(C)[C@H](c5ccoc5)OC(=O)[C@H]5O[C@]54[C@]3(C)[C@H](O)C[C@@H]12 | 0.188
C[n+]1c2cc(N)ccc2cc2ccc(N)cc21 | 0.13
CC1(C)O[C@H]2CC(=O)OC[C@]23[C@H]2CC[C@@]4(C)[C@H](c5ccoc5)OC(=O)[C@H]5O[C@]54[C@]2(C)C(=O)C[C@@H]13 | 0.19
CN[C@@H]1[C@@H](O[C@H]2O[C@H](CO)[C@@H](N)[C@H](O)[C@H]2O)OC2C[C@@H](N)[C@@H](O[C@H]3[C@H](O)[C@@H](O)[C@H](N)C[C@@H]3N)OC2[C@@H]1O (stereo not given in full) | 0.278
CC12CCC(CC1=O)C2(C)C (stereo not given) | 0.162
CC(=O)Oc1cc(OC(C)=O)c2c(c1)O[C@H](c1ccc(OC(C)=O)c(OC(C)=O)c1)[C@@H](OC(C)=O)C2 | 0.421
COc1ccc(O)cc1 | 0.0714
CC(=O)NC(Cc1ccccc1)C(=O)O (stereo not given) | 0.232
CCCCCCCCCCCCCCCCCCCCCCO | 0.0222
NCCCC(=O)O [gamma-AMINOBUTYRIC ACID HYDROCHLORIDE] | 0.289
CCCCCCOC(=O)NC(=N)c1ccc(NCc2nc3cc(C(=O)N(CCC(=O)OCC)c4ccccn4)ccc3n2C)cc1 | 0.23
CN[C@@H]1[C@H](O)[C@H](NC)[C@H]2O[C@@]3(O)C(=O)C[C@@H](C)O[C@H]3O[C@@H]2[C@H]1O | 0.111
CC(C)=CCC[C@@H](C)CC=O | 0.158
CN[C@H](CC(=O)O)C(=O)O | 0.245
Cc1onc(-c2ccccc2Cl)c1C(=O)N[C@@H]1C(=O)N2[C@@H]1SC(C)(C)[C@@H]2C(=O)O | 0.0588
CN(C)CCOC(c1ccccc1)c1ccccc1 | 0.0577
COc1ccc2[nH]c([S+]([O-])Cc3ncc(C)c(OC)c3C)nc2n1 (stereo not given) | 0.0811
CC(=O)[C@H]1CC[C@H]2[C@@H]3CCC4=CC(=O)CC[C@]4(C)[C@H]3CC[C@]12C | 0.107
CN(C)CC/C=C1/c2ccccc2Sc2ccc(Cl)cc21 | 0.0917

In the list so far, these have a furan ring, fused or not:
Structure (SMILES) | fraction of eclosed F1 progeny that are homozygous ATM8
CC1(C)C(=O)C=C[C@]2(C)[C@H]3CC[C@@]4(C)[C@H](c5ccoc5)OC(=O)[C@H]5O[C@]54[C@]3(C)[C@H](O)C[C@@H]12 | 0.188
CC1(C)O[C@H]2CC(=O)OC[C@]23[C@H]2CC[C@@]4(C)[C@H](c5ccoc5)OC(=O)[C@H]5O[C@]54[C@]2(C)C(=O)C[C@@H]13 | 0.19

Further results

Structure (SMILES) | fraction of eclosed F1 progeny that are homozygous ATM8
CC(=O)O[C@H]1C[C@@H](OC(C)=O)C(C)(C)[C@@H]2C[C@@H](OC(C)=O)[C@]3(C)[C@H](CC[C@@]4(C)[C@H](c5ccoc5)OC(=O)[C@H]5O[C@@]534)[C@@]12C | 0.14
CC[C@@]1(O)C(=O)OCc2c1cc1n(c2=O)Cc2cc3ccccc3nc2-1 | 0.162
CCN(CC)C(=O)c1cccnc1 | 0.118
CCN(CC)C(=O)c1cccc(C)c1 | 0.0806
CCCN(CCC)S(=O)(=O)c1ccc(C(=O)O)cc1 | 0.279
O=C1C[C@@H]2OCC=C3CN4CC[C@]56c7ccccc7N1[C@H]5[C@H]2[C@H]3C[C@H]46 | 0.0345
CN(C)CCN(Cc1ccccc1)c1ccccn1 | 0.179
C=CC1=C(C)c2cc3[nH]c(cc4nc(cc5[nH]c(cc1n2)c(C)c5CCC(=O)O)C(CCC(=O)O)=C4C)c(C)c3C=C | 0.19
C=C(C)CCCC(C)CCOC(C)=O (stereo not given) | 0.151
CC(O)C(=O)O.N (stereo not given) | 0.133
CN1C(=O)CC(c2ccccc2)C1=O (stereo not given) | 0.0263
CC(=O)O[C@@]12CO[C@@H]1C[C@H](O)[C@@]1(C)C(=O)[C@H](O)C3=C(C)[C@@H](OC(=O)[C@H](O)[C@@H](NC(=O)OC(C)(C)C)c4ccccc4)C[C@@](O)([C@@H](OC(=O)c4ccccc4)[C@H]21)C3(C)C | 0.129
Clc1ccc(CSC(Cn2ccnc2)c2ccc(Cl)cc2Cl)cc1 (stereo not given) | 0.188
Nc1ncnc2c1ncn2[C@@H]1O[C@H](CO)[C@@H](O)[C@H]1O | 0
COc1ccc2c(c1)OCC(Cc1ccc(O)c(OC)c1)C2=O (stereo not given) | 0.107
C[n+]1cc2c3c(ccc2c2ccc4cc5c(cc4c21)OCO5)OCO3 | 0.235
COc1cc(O)c(C(C)=O)c(O)c1 | 0.121
Cc1cc(=O)oc2cc(O)c(O)cc12 | 0.157
NCCc1cc(O)c(O)cc1O | 0.259
N[C@@H](Cc1cc(I)c(Oc2cc(I)c(O)c(I)c2)c(I)c1)C(=O)O | 0.0435
CC(C)=CCC[C@]1(C)C=Cc2c(O)c3c(c(CC=C(C)C)c2O1)O[C@]12C(=C[C@@H]4C[C@H]1C(C)(C)O[C@@]2(C/C=C(/C)C(=O)O)C4=O)C3=O | 0.2
N=C(N)NC(=O)Cc1c(Cl)cccc1Cl | 0
COc1cc(O)c(C(=O)c2ccccc2)cc1S(=O)(=O)O | 0.0312
CNCc1ccccc1 | 0.0577
O=C(O)CCCCCCCCCCCC[C@@H]1C=CCC1 | 0.257
